# Results from PubChem BioAssay AID2685 (National Center for Advancing Translational Sciences (NCATS), 2010).
# The list shows a part of the results. Further columns of the screen follow, without active or inactive calls. Most of these compounds were active or inconclusive in the main read-out, so they are no random draw. Words in brackets tell the shape of the fitted curve; partial curves, single points and poor fits give uncertain potencies.
# Test: qHTS Assay for Lipid Storage Modulators in Drosophila S3 Cells;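 on cell number change: cells counted by Cell Tracker Red CMTPX staining in the red channel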
# Details: BODIPY lipid droplet fluorescence, 18-24 h; for cell number change: measured here: cell count max response, cells fed with added oleic acid
# Method in brief: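 Drosophila S3 cells loaded with oleic acid (400 uM, as added) and compounds at several concentrations; lipid droplets imaged by 488-nm laser-scanning cytometry, 500–530 nm intensity and object ratio to cell channel. Percent activity normalized to 20 uM Triacsin C.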
# [1] = measured here: lipid fluorescence (Fed channel) AC50, cells fed with added oleic acid
# [2] = measured here: cell number channel AC50, cells fed with added oleic acid
Compound,cell number change [%],AC50 [1],AC50 [2]
C=CCn1c(=N)n(CC(O)COc2ccccc2OC)c2ccccc21 (centres undefined),-18.4,"7.31 µM [falling, partial curve, poor fit]",
Cn1nccc1C(=O)Nn1cnnc1,1.75,,
CC1(C)C([N+](=O)[O-])C(c2ccccc2O)NC(c2ccccc2O)C1[N+](=O)[O-] (centres undefined),15,,"0.184 µM [rising, full curve, poor fit]"
CCCSCCCNC(=O)c1ccc(C)c(NC(=O)C2=C(C)OCCS2)c1,-43,,"20.6 µM [falling, single point]"
COc1ccc2c(c1)c1nc3ccccc3nc1n2CCn1c(=O)oc2ccccc21,,"0.651 µM [rising, partial curve, poor fit]","0.651 µM [rising, single point]"
CC(C)CCN1CC(O)=C(c2nc(-c3ccc(Cl)cc3)cs2)C1=N,,,"0.517 µM [rising, full curve, poor fit]"
NC(=O)C1CCN(C(=O)c2ccc(CS(=O)(=O)c3c(Cl)cccc3Cl)o2)CC1,20.6,"1.64 µM [rising, partial curve, poor fit]",
Cc1cccc(NC(=O)c2c(C)nn(-c3ccccc3)c2Cl)c1,29.4,,
Cc1ccc2oc(=O)c3cc(C(=O)NCCCN4CC(C)CC(C)C4)sc3c2c1 (centres undefined),21.2,"1.3 µM [rising, full curve]",
O=c1nc(NCc2ccccc2Cl)cn[nH]1,31.6,,"18.4 µM [rising, partial curve, poor fit]"
O=S(=O)(c1cnc[nH]1)N1CCN(c2ccccc2)CC1,-49.8,"0.103 µM [falling, full curve]","0.326 µM [falling, full curve]"
Cc1ccn(CCC(=O)N2CCc3ccccc32)n1,,"0.291 µM [falling, partial curve]",
Cc1ccccc1CCN(C(=O)Cn1nnc2ccccc21)C(C(=O)NC(C)(C)C)c1ccsc1 (centres undefined),16.5,"29.1 µM [falling, single point]",
Cc1cc(C)n(-c2ccc(C(=O)N3CCC(CO)(Cc4ccccc4)CC3)cc2)n1,-16.7,,
CCCC(=O)NC(C)C(c1cccs1)N1CCN(C)CC1 (centres undefined),-9.04,"16.4 µM [falling, partial curve]",
CCCC[C@@H]1CN=C(N)N1CCc1cc(C(F)(F)F)cc(C(F)(F)F)c1,19.7,"11.6 µM [rising, single point]",

Compound,cell number change [%],AC50 [1],AC50 [2]
O=C(CS(=O)(=O)Cc1ccccc1)Nc1nc2c(s1)CCCC2,-13,"6.51 µM [rising, single point]",
COC(=O)c1nc2n(n1)C(c1ccc(OC)c(OC)c1)C(C(=O)OC1CCCCC1)=C(C)N2 (centres undefined),22.7,"2.31 µM [rising, partial curve]","1.46 µM [rising, partial curve]"
Cc1c(/C(O)=C2/C(=O)C(=O)N(Cc3cccnc3)C2c2cccs2)cnn1-c1ccccc1 (centres undefined),0.0661,"18.4 µM [rising, single point]",
Cc1c(CCC(=O)NCCCn2ccnc2)c(=O)oc2cc3occ(C(C)(C)C)c3cc12,-18.2,,
COc1ccc(OC)c(NC(=O)C23CC4CC(C2)CC(n2cnc(Br)n2)(C4)C3)c1,7.6,"7.31 µM [rising, partial curve]",
CN(C)S(=O)(=O)c1ccc(C(=O)Nc2ccc(CN3CCCC3)cc2)cc1,-5.44,,
O=C(CN1c2ccccc2Sc2ccccc21)N/N=C/c1ccc([N+](=O)[O-])cc1,15.3,,"0.164 µM [rising, full curve, poor fit]"
O=C(NCc1ccc2c(c1)OCO2)C1CC(c2cccc(Br)c2)=NO1 (centres undefined),-17.2,,
Cc1nc(-c2cnn(-c3ccccc3)c2)c2cc(C)oc2n1,,"0.326 µM [rising, full curve]","0.411 µM [rising, full curve]"
O=C(NNC(=O)c1cc2cc3ccccc3nc2s1)c1cccc(C(F)(F)F)c1,5.46,"29.1 µM [rising, single point]",
O=S(=O)(NCC(c1ccco1)N1CCN(c2ccccc2F)CC1)c1ccc2c(c1)OCCO2 (centres undefined),,"8.2 µM [falling, full curve]",
CCc1c(C(=O)N2CCOCC2)csc1C,-13.9,"1.16 µM [falling, full curve, poor fit]",
Cc1nn(CC(=O)OC(C)C(=O)Nc2ccccc2[N+](=O)[O-])c(C)c1[N+](=O)[O-] (centres undefined),11.8,"0.517 µM [rising, full curve, poor fit]",
COCCNC(=O)/C(C#N)=C/c1cccc(NC(=O)c2ccccc2Cl)c1,-23.8,,
O=C(COC(=O)C1CCN(S(=O)(=O)c2cccc3cccnc23)CC1)c1ccc([N+](=O)[O-])cc1,-50.5,,"18.4 µM [falling, partial curve]"

# Reformatted with bars between the fields: seven of the compounds above
Compound | cell number change [%] | AC50 [1] | AC50 [2]
Cc1c(CCC(=O)NCCCn2ccnc2)c(=O)oc2cc3occ(C(C)(C)C)c3cc12 | -18.2 |  | 
COc1ccc(OC)c(NC(=O)C23CC4CC(C2)CC(n2cnc(Br)n2)(C4)C3)c1 | 7.6 | 7.31 µM [rising, partial curve] | 
CN(C)S(=O)(=O)c1ccc(C(=O)Nc2ccc(CN3CCCC3)cc2)cc1 | -5.44 |  | 
O=C(CN1c2ccccc2Sc2ccccc21)N/N=C/c1ccc([N+](=O)[O-])cc1 | 15.3 |  | 0.164 µM [rising, full curve, poor fit]
O=C(NCc1ccc2c(c1)OCO2)C1CC(c2cccc(Br)c2)=NO1 (centres undefined) | -17.2 |  | 
Cc1nc(-c2cnn(-c3ccccc3)c2)c2cc(C)oc2n1 |  | 0.326 µM [rising, full curve] | 0.411 µM [rising, full curve]
O=C(NNC(=O)c1cc2cc3ccccc3nc2s1)c1cccc(C(F)(F)F)c1 | 5.46 | 29.1 µM [rising, single point] | 
